According to publication PMC9178013:

Target: FLAG-emGFP-tagged C-terminally shortened RNPS1 (Del-C)
Experiment: co-IP; FLAG-IP of FLAG-emGFP-tagged RNPS1 constructs from RNase A-treated HEK293 lysate, immunoblot (WB) of the eluate

binding: binds
B1: LUC7L3 (protein, UniProt O95232 1-432)
chain: MISAAQLLDELMGRDRNLAPDEKRSNVRWDHESVCKYYLCGFCPAELFTNTRSDLGPCEKIHDENLRKQYEKSSRFMKVGYERDFLRYLQSLLAEVERRIRRGHARLALSQNQQSSGAAGPTGKNEEKIQVLTDKIDVLLQQIEELGSEGKVEEAQGMMKLVEQLKEERELLRSTTSTIESFAAQEKQMEVCEVCGAFLIVGDAQSRVDDHLMGKQHMGYAKIKATVEELKEKLRKRTEEPDRDERLKKEKQEREEREKEREREREERERKRRREEEEREKERARDRERRKRSRSRSRHSSRTSDRRCSRSRDHKRSRSRERRRSRSRDRRRSRSHDRSERKHRSRSRDRRRSKSRDRKSYKHRSKSRDREQDRKSKEKEKRGSDDKKSSVKSGSREKQSEDTNTESKESDTKNEVNGTSEDIKSEGDTQSN

Results are given in words; binding and its absence hold for the method and conditions named. In cells and extracts the contact can be indirect. A result given as binding can be weak or reduced; the word gives no strength. Tags and fused reporters may be left off the sequences shown.
